# Data from patent US20240335547A1, “MODIFIED CHOLIC ACID CONJUGATES” (priority 2022, published 2024).
# “And” between values parts separate entries of the source, which are not always exact repeats. Equal values may be shown once. At least one structure is not confirmed: it was looked up by name or label, or the drawing left a doubt.
# Experiments:
# [1] = test system: cytokines; assay: Cytokine levels in lungs of mice; assay type: in vivo, BALB/c mice; details: HCoV-229E infected mice, FIG. 8A
# [2] = Histopathological studies (H&E staining, imaging) of lungs of infected and non-infected mice; assay type: in vivo, BALB/c mice; details: Group D, HCoV-229E infected, 0.5 mg intranasally 24 hours later
# Experimental: Group A: No infection, treated with PBS: Ten (10) BALB/c 6-weeks old female mice were used for this group. Mice were first anesthetized with isoflurane. Each mouse was intranasally treated with one dose of PBS (75 ul). Mice were sacrificed at 72 hrs, and 7 days post treatment. The lungs from these mice were collected for immunohistochemistry and cytokines analysis.
# Group B: No infection, treated with Compound 12: Twenty (20) BALB/c 6-weeks old female mice was used for this group. Mice were first anesthetized with isoflurane. Each mouse was intranasally treated with one dose of 0.5 mg of […] diluted in PBS (75 ul). Mice were sacrificed at 24 hrs, 48 hrs, 72 hrs, and 7 days post treatment. The lungs from these mice were collected for immunohistochemistry and cytokines analysis.
# Group C: Infection with 229E, treated with PBS: Thirty five (35) BALB/c 6-weeks old female mice were used for this group. Mice were first anesthetized with isoflurane. Each mouse was intranasally infected with 1×105 plaque forming unit (pfu) of HCoV-229E and then treated with PBS (75 ul) 24 hours later. Mice were sacrificed at 24 hrs post infection, and 24 hrs, 48 hrs, 72 hrs, 6 days, and 7 days post treatment. The lungs from these mice were collected for viral load, immunohistochemistry and cytokines analysis. […]
# [3] = test system: WA strain of SARS-COV-2 virus; assay: Anti-viral activity in Calu3 cells, strain WA; assay type: cell-based; details: 100 μM, MOI 0.1, supernatants 24-72 hpi, FIG. 5A
# [4] = molecular target: 3CL Protease (SARS-COV-2) (Severe acute respiratory syndrome coronavirus 2, UniProt P0DTD1); assay: 3CL Protease (SARS-COV-2) Inhibitor Assay; assay type: biochemical; details: 2 repeats
# Experimental: The compound is dissolved in DMSO. A series of dilutions were prepared with 5% DMSO in 3CL Protease assay buffer. 10 μl of the dilution was added to a 50 μl reaction so that the final concentration of DMSO is 1% in all of the reactions. The compound was pre-incubated in duplicate at room temperature for 30 minutes in a mixture containing 3CL Pro assay buffer, 3CL enzyme and a test compound. After 30 minutes, the enzymatic reactions were initiated by the addition of 3CL Protease substrate. The enzymatic reaction proceeded for 4 hours at room temperature. Fluorescence intensity was measured at an excitation of 360 nm and an emission of 460 nm using a Tecan Infinite M1000 microplate reader.
# [5] = test system: BA.5 strain of SARS-COV-2 virus; assay: Anti-viral activity in Calu3 cells, strain BA.5; assay type: cell-based
smiles,measurement,setting,value
C[C@H](CCC(=O)NCCNC(=O)CCCC[C@@H]1SCC2NC(=O)NC21)C1CCC2C3C(C[C@H](OC(=O)CCN)[C@@]21C)[C@@]1(C)CC[C@@H](OC(=O)CCN)CC1C[C@H]3OC(=O)CCN (some centres unmarked) [Compound 12],"cytokines IL-3, IL-17, CXCL11, CCL3, CCL4, and TNFα, Group C (control) versus Group D (treated)",[1],significant reduction
same,lung morphology of infected treated mice (H&E staining),[2],normal lung morphology
same,viral strain WA in the presence of compound,[3],reduction
same,3CL Activity (Fluorescent count),[4]; 0.0003 μM,4878 and 4956
same,3CL Activity (Fluorescent count),[4]; 0.001 μM,5061 and 5027
same,3CL Activity (Fluorescent count),[4]; 0.003 μM,5028 and 5032
same,3CL Activity (Fluorescent count),[4]; 0.01 μM,4755 and 4913
same,3CL Activity (Fluorescent count),[4]; 0.03 μM,4690 and 4503
same,3CL Activity (Fluorescent count),[4]; 0.1 μM,4492 and 4450
same,3CL Activity (Fluorescent count),[4]; 0.3 μM,4543 and 4409
same,3CL Activity (Fluorescent count),[4]; 1 μM,4475 and 4438
same,3CL Activity (Fluorescent count),[4]; 3 μM,4157 and 4029
same,3CL Activity (Fluorescent count),[4]; 10 μM,3849 and 3945
same,viral strain BA.5 in the presence of compound,[5],reduction
